{"sequences": {"note": "By UniProt entry, the sequences of proteins in these tests, tags left out.", "UniProt Q8NER1, whole entry, looked up": "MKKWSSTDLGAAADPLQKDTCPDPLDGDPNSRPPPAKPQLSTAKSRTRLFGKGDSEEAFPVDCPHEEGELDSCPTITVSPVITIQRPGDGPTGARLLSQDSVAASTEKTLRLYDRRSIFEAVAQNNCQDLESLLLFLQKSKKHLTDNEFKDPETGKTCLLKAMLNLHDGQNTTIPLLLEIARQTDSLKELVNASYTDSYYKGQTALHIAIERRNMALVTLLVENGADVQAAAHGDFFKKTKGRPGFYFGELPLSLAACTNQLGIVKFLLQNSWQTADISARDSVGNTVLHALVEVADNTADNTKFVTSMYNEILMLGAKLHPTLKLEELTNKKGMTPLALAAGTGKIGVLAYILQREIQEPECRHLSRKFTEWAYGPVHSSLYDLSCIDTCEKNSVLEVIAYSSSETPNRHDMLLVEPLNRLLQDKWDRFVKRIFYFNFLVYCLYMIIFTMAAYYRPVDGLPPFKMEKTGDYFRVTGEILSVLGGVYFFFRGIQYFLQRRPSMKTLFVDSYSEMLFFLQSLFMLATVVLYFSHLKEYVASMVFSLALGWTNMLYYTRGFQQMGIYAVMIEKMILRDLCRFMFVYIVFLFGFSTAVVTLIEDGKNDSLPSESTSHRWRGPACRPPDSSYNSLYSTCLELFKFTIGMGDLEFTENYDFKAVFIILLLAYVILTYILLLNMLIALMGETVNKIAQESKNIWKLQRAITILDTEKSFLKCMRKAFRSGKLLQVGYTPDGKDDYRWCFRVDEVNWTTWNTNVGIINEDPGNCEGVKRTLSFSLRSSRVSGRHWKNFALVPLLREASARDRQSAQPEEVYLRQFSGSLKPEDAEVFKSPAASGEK"}, "source": "PubChem BioAssay AID540275", "about": "(National Center for Advancing Translational Sciences (NCATS), 2011)", "note": "About 620 (0.19%) of roughly 320,000 compounds were called active. The shares of active, inactive and inconclusive entries below differ from those in the screen. Cut-off read from the data, not from the text of the source: active = activation above about 80%; inconclusive = between about 30% and that limit; inactive = weaker than that."}
{"molecular_target": "Transient receptor potential cation channel subfamily V member 1 (Homo sapiens) (UniProt Q8NER1)", "experiment": "HTS Assay for Compounds that Act as Agonists of the Vanilloid Receptor 1; note: 0% is about no effect", "conditions": "TRPV1-expressing cells, Fluo-8 calcium influx, agonist mode; at 8.33 µM, stronger effect = higher value", "summary_of_the_method": "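Fluo-8 calcium influx in TRPV1-expressing cells, kinetic read (ex 480/em 520 nm). Compound added and read 3 min for agonist activity, followed by capsaicin at EC20 final and 2 min further read for enhancement.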"}
{"smiles": "Cc1nn(CC(=O)NN)c(C)c1Br", "activation": "inactive: -7.36%"}
{"smiles": "O=C(Cc1c(F)cccc1Cl)Nc1ccc(S(=O)(=O)N2CCCC2)cc1", "activation": "inconclusive: 32.6%"}
{"smiles": "CCn1nc(C)c(CN2CCc3c([nH]c4ccccc34)C2C(C)(C)C)c1C", "note": "(stereo unspecified)", "activation": "inconclusive: 32%"}
{"smiles": "CC1(C)Cc2c(c(-c3ccco3)nc3sc4c(NCCCO)ncnc4c23)CO1", "activation": "inconclusive: 62.9%"}
{"smiles": "Cc1ccccc1NC(=O)COC(=O)c1ccc(S(=O)(=O)N2CCCC2)cc1", "activation": "inconclusive: 34.7%"}
{"smiles": "CCCCCC(=O)Nc1nc2ccccc2[nH]1", "activation": "inactive: 2.86%"}
{"smiles": "CCOc1ccc(-n2ccnc2SCC(=O)NCc2ccc3c(c2)OCO3)cc1", "activation": "inconclusive: 42.2%"}
{"smiles": "Cc1c(C(=O)N2CCN(C(=O)c3ccccc3)CC2)oc2ccc(F)cc12", "activation": "inactive: 7.05%"}
{"smiles": "C=CCN(CC=C)C(=S)NC(=O)c1ccc(-c2ccccc2)cc1", "activation": "inactive: 2.43%"}
{"smiles": "Cc1cccc(N(CC(=O)N2CCN(c3ccccc3F)CC2)S(C)(=O)=O)c1", "activation": "inactive: 5.67%"}
{"smiles": "O=C(Nc1nnc(-c2ccccc2)o1)NC1CCCCC1", "activation": "inconclusive: 63.7%"}
{"smiles": "O=C(Nc1ccccc1)OCCOc1ccc(Br)cc1", "activation": "inconclusive: 33.1%"}
{"smiles": "Cc1ccc(-c2csc3ncnc(N4CCN(C)CC4)c23)cc1C", "activation": "inconclusive: 33.2%"}
{"smiles": "C=CCOc1ccc(CNc2nccs2)cc1OCC", "activation": "inactive: 1.41%"}
{"smiles": "CC(C)(C)c1cc(C(=O)Nc2ccccc2)ccn1", "activation": "inconclusive: 50.6%"}
{"smiles": "C=CCn1c(O)c2ccc(C(=O)N=NC(=O)c3ccc(F)cc3)cc2c1O", "activation": "inactive: -0.968%"}
{"smiles": "CCCN(CC1CC1)C(=O)COc1ccccc1C(=O)NCc1ccccc1", "activation": "inconclusive: 32.3%"}
{"smiles": "O=C(Nc1ccc(Cl)cc1)c1ccc2ncsc2c1", "activation": "inconclusive: 62.3%"}
{"smiles": "c1ccc2c(c1)[nH]c1c(N3CCCC3)ncnc12", "activation": "inactive: 1.72%"}
{"smiles": "Cc1cccc(C)c1N1CCN(S(=O)(=O)N2CCOCC2)CC1", "activation": "inconclusive: 44.7%"}
{"smiles": "N#Cc1cc(-c2ccccc2)[nH]c1-c1nccc2ccccc12", "activation": "inconclusive: 40.9%"}
{"smiles": "CC(C)CC(=O)Nc1nc2ccc(S(C)(=O)=O)cc2s1", "activation": "inactive: 2.05%"}
{"smiles": "COc1ccc(N(CC(=O)NCCOc2ccccc2)S(=O)(=O)c2ccc(C)cc2)cc1", "activation": "inactive: 9.26%"}
{"smiles": "Cc1ccc(CCNC(=O)Cn2ncc3c([nH]c4ccccc43)c2=O)cc1", "activation": "inconclusive: 41.2%"}
{"smiles": "COc1ccc(/C=C/c2c([N+](=O)[O-])c(=O)n(C)c(=O)n2C)c(OC)c1OC", "activation": "inactive: 18.9%"}
{"smiles": "Cc1ccnc(SCC(=O)Nc2sc3c(c2C#N)CCCC3)n1", "activation": "inactive: 2.12%"}
{"smiles": "O=C(Cc1ccc(Cl)cc1)NC1CCCCCC1", "activation": "inconclusive: 70.6%"}
{"smiles": "O=C(CN1CCCCC1)N/N=C/c1ccccc1OCc1ccccc1", "activation": "inactive: 0.583%"}
{"smiles": "Cc1ccc(S(=O)(=O)NC(=O)Nc2ccc(N(C)C)cc2)cc1", "activation": "inactive: 14.6%"}
{"smiles": "COC(=O)C1=C(C)NC(C)=C(C(=O)OCC2CCCO2)C1c1cccc(Br)c1", "note": "(stereo unspecified)", "activation": "inconclusive: 36.2%"}
{"smiles": "CC(=O)c1cccc(NC(=O)N2CCC(C(=O)c3ccc(F)cc3)CC2)c1", "activation": "inconclusive: 53.8%"}
{"smiles": "CCNC(=O)c1cccc(NC(=O)c2cc(C3CC3)nc3c2cnn3C(C)C)c1", "activation": "inconclusive: 35.3%"}
{"smiles": "CC(C)Cc1ccc(/C=C/C(=O)NC2CC2)cc1", "activation": "inconclusive: 68%"}
{"smiles": "CCOc1cccc2cc(-c3csc(NC(=O)CCC(=O)NCCN4CCCCC4C)n3)c(=O)oc12", "note": "(stereo unspecified)", "activation": "inconclusive: 36.3%"}
{"smiles": "COc1ccc(OCc2cc(C(=O)N3C[C@H]4CC[C@H]3C4)no2)c(Cl)c1", "activation": "inconclusive: 31.9%"}
{"smiles": "C/C(CC(=O)Nc1cccc(Br)c1)=N\\NC(=O)c1ccc(O)cc1O", "activation": "inconclusive: 69.5%"}
{"smiles": "Cc1ccc(S(=O)(=O)Cn2nnnc2CN2CCCC3(CCCCC3)C2)cc1", "activation": "inconclusive: 45.2%"}
{"smiles": "CC(C)OC(=O)CSc1nc2ncc(Cl)cc2[nH]1", "activation": "inactive: 0.478%"}
{"smiles": "O=C(Nc1ccnn1C1CCN(Cc2ccc(Cl)cc2)CC1)C1CCCC1", "activation": "inactive: 22.6%"}
{"smiles": "Cc1ccc(Nc2nc(N3CCOCC3)c3ccccc3n2)cc1", "activation": "inconclusive: 35.9%"}
{"smiles": "CC(/C=N/NC(=O)c1nnn(-c2nonc2N)c1C(C)C)=C\\c1ccco1", "activation": "inconclusive: 33.2%"}
{"smiles": "CCc1ccc(NC(=S)Nc2ccc3[nH]c(=O)[nH]c3c2)cc1", "activation": "inactive: 3.02%"}
{"smiles": "CCCCC[C@H]1CN(CCc2ccccc2)C(=O)[C@@H]1CC(=O)NCc1ccc(OC)cc1", "activation": "inconclusive: 53.9%"}
{"smiles": "COc1ccc(NC(=O)C2CCCN(C(=O)c3ccc(Cl)cc3)C2)cc1Cl", "note": "(stereo unspecified)", "activation": "inconclusive: 38.6%"}
{"smiles": "Cc1c(OCC(=O)N2CCC(C(=O)O)CC2)ccc2c1oc(=O)c1ccccc12", "activation": "inactive: -0.896%"}
{"smiles": "CC1=C(c2ccccc2)C(=S)NC(C)(C)C1", "activation": "inactive: 2.14%"}
{"smiles": "COc1ccc(-c2nnc(NC(=O)Cc3ccccc3)o2)cc1", "activation": "inactive: 9.79%"}
{"smiles": "c1ccc2c(C3=NNC(=NC4CCCCC4)SC3)c[nH]c2c1", "activation": "inactive: -1.68%"}
{"smiles": "O=C(CCS(=O)(=O)c1ccc(Br)cc1)NC1CCCC1", "activation": "inactive: -2.18%"}
{"smiles": "O=C(Nc1ccccc1)N1CCN(c2ccc(C(F)(F)F)cn2)CC1", "activation": "inconclusive: 69.3%"}
{"smiles": "O=C(NC1CCCCCCC1)c1ccc2c(c1)OCO2", "activation": "inconclusive: 61.6%"}
{"smiles": "CCn1c(CSc2nc3ccccc3[nH]2)nc2cc(C(=O)O)ccc21", "activation": "inactive: 0.853%"}
{"smiles": "CCOC(=O)NCCc1c(C)nc2c(c(C)nn2C(C)(C)C)c1C", "activation": "inconclusive: 62.9%"}
{"smiles": "Cc1ccc(C(=O)CC(=O)c2cccc(F)c2)c(O)c1", "activation": "inconclusive: 37.9%"}
{"smiles": "CCOc1ccc(N(C)S(=O)(=O)c2cc(-c3cc(C)no3)ccc2C)cc1", "activation": "inconclusive: 68.2%"}
{"smiles": "C=CCn1c(N)c(C(=O)Nc2ccc(C)c(C)c2)c2nc3ccccc3nc21", "activation": "inconclusive: 50%"}
{"smiles": "COc1cccc(CNC(=O)CCCSc2ccccc2)c1", "activation": "inconclusive: 71.8%"}
{"smiles": "O=C(COc1ccc(Cl)cc1)Nc1ccc2oc(=O)ccc2c1", "activation": "inconclusive: 51.9%"}
{"smiles": "CN1CCN(S(=O)(=O)c2ccc(N3CCN(c4ccccc4O)CC3)c([N+](=O)[O-])c2)CC1", "activation": "inactive: 4.24%"}
{"smiles": "COc1ccc(NC(=O)CN(C)C(=O)c2cc(-c3ccc(Cl)cc3)nc3ccccc23)cc1", "activation": "inactive: 3.93%"}
{"smiles": "O=C(/C=C/c1cccc(F)c1)c1ccc(N2CCOCC2)cc1", "activation": "inconclusive: 46.7%"}
{"smiles": "CCS(=O)(=O)N1CCN(c2ccc([N+](=O)[O-])c(NC(C)c3ccccc3)c2)CC1", "note": "(stereo unspecified)", "activation": "inconclusive: 32.4%"}
{"smiles": "CN(C)CCCN(C(=O)CCc1ccccc1)c1nc2c(F)cccc2s1", "activation": "inactive: -5.67%"}
{"smiles": "CCn1c(-c2ccc(F)cc2)cnc1SCC(=O)N1CCCCC1C", "note": "(stereo unspecified)", "activation": "inconclusive: 61.1%"}
{"smiles": "COc1ccc2[nH]c(=O)c(C(c3nnnn3C3CCCCC3)N3CCN(C)CC3)cc2c1", "note": "(stereo unspecified)", "activation": "inactive: 2.74%"}
{"smiles": "CCc1ccc(C(=O)NNC(=O)CN2C(=O)NC(CC)(c3ccccc3)C2=O)cc1", "note": "(stereo unspecified)", "activation": "inconclusive: 33.8%"}
{"smiles": "COC(=O)C(Cc1c[nH]c2ccccc12)NC(=O)CNC(C)=O", "note": "(stereo unspecified)", "activation": "inactive: 4.58%"}
{"smiles": "CC(=O)N(CCC1(c2ccc(C)cc2)CCOC(C(C)C)C1)Cc1ccco1", "note": "(stereo unspecified)", "activation": "inconclusive: 44.5%"}
{"smiles": "O=C(O)c1ccccc1C(=O)Nc1ccc(Nc2ccc([N+](=O)[O-])cc2[N+](=O)[O-])cc1", "activation": "inactive: -5.7%"}
{"smiles": "COC(=O)c1sc(N2C(=O)C(O)=C(C(=O)c3ccc(C)o3)C2c2ccc(F)cc2)nc1C", "note": "(stereo unspecified)", "activation": "inactive: 1.18%"}
{"smiles": "CC(C)(C)c1ccc(NC(=O)CSc2nnc(-c3n[nH]c4ccccc34)o2)cc1", "activation": "inconclusive: 47.4%"}
{"smiles": "CCNC(=O)NC(=O)COC(=O)CCCc1nc2ccccc2s1", "activation": "inactive: -3.76%"}
{"smiles": "CCOC(=O)C1CCCN(C(=O)c2cnn3c(C(F)F)cc(-c4ccc(C)cc4)nc23)C1", "note": "(stereo unspecified)", "activation": "inconclusive: 61.5%"}
{"smiles": "COc1ccccc1/C=N/OCc1cc(C(C)=O)ccc1OC", "activation": "inactive: 23.7%"}
{"smiles": "Cc1nc2c(ccc3nc(NC(=O)c4ccc(S(=O)(=O)N(C)C)cc4)sc32)s1", "activation": "inconclusive: 45.3%"}
{"smiles": "CC(C)(C)c1ccc(C(=O)OCC(=O)NC2CC2)cc1", "activation": "inconclusive: 46.3%"}
{"smiles": "Nc1nc(-c2ccccc2)cn1/N=C/c1ccccc1", "activation": "inconclusive: 33.8%"}
{"smiles": "CC1CC(C)CN(C(=O)CCc2ccccc2)C1", "note": "(stereo unspecified)", "activation": "inconclusive: 39.2%"}
{"smiles": "Cc1ccccc1C(=O)Nc1ccc(N2CCCC2)cc1", "activation": "inconclusive: 51.6%"}
{"smiles": "CC(C)(O)C#Cc1ccc(C(=O)NCCC(=O)O)s1", "activation": "inactive: -2.36%"}
{"smiles": "O=c1[nH]nc(-c2ccc(F)cc2)cc1Cc1ccccn1", "activation": "inconclusive: 31.1%"}
{"smiles": "Cc1ccc(C(=O)CSc2nnc(C(C)C)n2C)cc1C", "activation": "inactive: -8.56%"}
{"smiles": "Cc1ccc(C(=O)NCCOc2cccc(C)c2)cc1", "activation": "inconclusive: 38.3%"}
{"smiles": "COc1ccc(NC(=O)c2ccc(COc3ccccc3)o2)cc1", "activation": "inconclusive: 64.4%"}
{"smiles": "CCCCn1c(-c2ccoc2C)n[nH]c1=S", "activation": "inactive: 1.48%"}
{"smiles": "Cc1cc(S(=O)(=O)N2CCC(NC(=O)C34CC5CC(CC(C5)C3)C4)CC2)ccc1-n1cnnn1", "activation": "active: 80.7%"}
{"smiles": "CCc1cc2cc(C)cc(C)c2nc1SCC(=O)N1CCCC1", "activation": "inconclusive: 30.5%"}
{"smiles": "O=C(CC(=O)c1ccccc1O)c1ccc(F)cc1", "activation": "inconclusive: 54.2%"}
{"smiles": "CCOc1cc(CNn2cn[nH]c2=S)cc(Cl)c1OCc1ccccc1F", "activation": "inconclusive: 46.5%"}
{"smiles": "O=C(O)c1ccc(S(=O)(=O)c2ccc3c(c2)C(=O)N(NC(=O)c2ccc(O)cc2)C3=O)cc1", "activation": "inconclusive: 36.7%"}
{"smiles": "CC(=O)Nc1nc2ccccc2n1Cc1ccc(Cl)cc1", "activation": "inactive: 5%"}
